Construct, isoform or probe ends are uncertain for at least one entry. At least one result comes from cells or an extract, where the contact may be indirect. No signal at the amounts used counts as a negative. At least one verdict was read from the data and is not stated in words by the source.
Target: HuR (ELAVL1) (mouse) (UniProt P70372)
Assay: EMSA (nuclear extract)
Conditions: LightShift Chemiluminescent RNA EMSA kit, REMSA binding buffer, 10 pM biotin-RNA probe, fibroblast nuclear extract
[1] = no stable interaction with extract, 6% polyacrylamide gel, protein in an …
[2] = no shift with extract, 6% polyacrylamide …, protein in an extract

By UniProt entry, the sequences of proteins in these tests, tags left out.
UniProt P70372, whole entry: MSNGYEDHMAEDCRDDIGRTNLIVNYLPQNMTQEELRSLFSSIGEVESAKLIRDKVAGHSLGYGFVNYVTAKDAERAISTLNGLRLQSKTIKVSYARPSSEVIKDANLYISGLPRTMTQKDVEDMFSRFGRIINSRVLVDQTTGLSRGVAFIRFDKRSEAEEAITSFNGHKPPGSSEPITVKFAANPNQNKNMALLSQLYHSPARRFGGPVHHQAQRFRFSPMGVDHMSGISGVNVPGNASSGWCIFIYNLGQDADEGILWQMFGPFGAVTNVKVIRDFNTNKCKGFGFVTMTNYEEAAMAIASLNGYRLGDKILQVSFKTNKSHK

Row | Sequence | binding result [1] | binding result [2]
1 | AAGUUUAUAUACAAAGAAUAUAAUGUUUAU / AUAAACAUUAUAUUCUUUGUAUAUAAACUU [Safe probe 1F/1R duplex] | no binding | –
2 | CUACAAUGAUUUAGUUUGCAAAAAAAAUGA / UCAUUUUUUUUGCAAACUAAAUCAUUGUAG [Safe probe 2F/2R duplex] | no binding | –
3 | CUACAAUGAUUUAGUUUGCAAAAAAAAUGA [Safe probe 2F single strand] | – | no binding
4 | UGAAUUAAAAGAUGUUUUAAACAAAGCUUA / UAAGCUUUGUUUAAAACAUCUUUUAAUUCA [Safe probe 3F/3R duplex] | no binding | –
5 | UGAAUUAAAAGAUGUUUUAAACAAAGCUUA [Safe probe 3F single strand] | – | no binding
6 | AAGUUUAUAUACAAAGAAUAUAAUGUUUAU [Safe probe 1F single strand] | – | no binding
